# Screening data

The results are deposited in PubChem (AID1159506; NCATS, 2015).

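Luminescence from an EWS-FLI1 target-promoter (NR0B1) reporter, set against a CMV-promoter reporter, two days after silencing single genes in TC32 Ewing sarcoma cells. Each siRNA was applied at 20 nM. A z-score of the log NR0B1-over-CMV signal, less the median of siRNAs with the same seed; more negative means a stronger specific loss of the NR0B1 reporter.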

This is part of the screen; most of the strongest results are not listed here. Sequences are the guide (antisense) strand, without overhang.

siRNA,gene,seed-corrected z-score
UUCGAUGAGACUCAAAUUC,AP4M1,-0.6802
UUCGGAUGCUUCUUCUUCC,RNF103,0.004825
UUGAUGAUCCCGAUGGUCC,P2RX3,0.04975
AACGGUGUAAUGUUGUAGG,TBC1D30,-0.7932
UAUAGUAGGACGGUAACGG,OPALIN,0.7082
UUCUUGAUUCCCUCGAUCC,ITPKB,-0.112
UGCUUAACAGCAAUUGAGG,SPATA31D1,-1.593
UUCUUCAGUGUGAUGGUUC,PDZD11,0.3372
UCAUAGUCAUAGAUGGUGC,GPX5,-1.232
UUCAAAAUAACCUUCUUCC,CDC37L1,0.837
AAUCGUUAAAAGUAUAGAG,TRIM60,0.08684
ACAUGAGCCGCAUUGAUGG,TUFM,0.3812
UCUGUAUCAUUUAUGUCUG,PALMD,-0.7622
UCCAAUUCCGUCUUGUUGC,SRSF3,1.225
UCAAGGAACACUCCUGGUG,ARHGAP39,0.04925
AUACCUUUCUGAAAGUUGC,TATDN3,-0.3262
UCUUCGCUAAUUCAACGGC,IPO8,0.009713
AUGUGUUUGACCCUCCUCU,PLA2G2C,1.191
UAAGGAUCAUCAGCGCGGC,HTR1E,-0.4691
UAAAGAUCGACAAUUGAGC,ERO1B,-0.1546
UUCUUGGUACUCGUCGUGG,C5orf15,-0.002704
UUCUGGACCACGCUGAUGA,ALOX5AP,0.6934
UAUAUACCAAUGGGCCUUC,STXBP4,-0.9373
AUCCAUCUCUGGGUAGUGG,CDC42EP1,0.2855
AAAGUAAAACCUUGCAGCC,LOC732226,0.4189
UGUCACUCCAGCCUAACCC,TMEM92,-0.02636
AAAGAUAACUGGAGCAUGG,SLC10A6,0.886
UUCAGCAUCAGGAUGAGCU,JDP2,-0.05935
AAAGCUACUAAUGGGAGGG,RELT,-0.1346
UGUUGCUAGAGAAUCUUCC,IQUB,-0.247
AUGAAGACCAGCAUCAGCG,MC2R,-0.04282
UCUGAAACAACUAGCUACC,IFT88,-0.5021
UCUAGGGUCAGACAAUUCC,FNDC4,0.3293
AAACUUUCUAGUGCUUGUA,DR1,0.7048
UUUGCUAAGUUGUUCUAUC,MRPL42,-0.2038
UUAAUCUCCCUGGUGUUGU,TNNI1,0.9428
UUGGUGUGAACAUACAUCU,IRX4,0.9033
UACACGAUCUUUCCCGUGG,SLC6A8,-0.7251
UCUGCUGUGAUGAUAAUCA,THAP1,0.716
UAACCAACAGCUGCUAGGC,ADHFE1,-0.2169
UAACUUGGGAAAUCGUUCG,NXF1,2.446
UUCUGGUACGAAACUCUGC,KPNA5,-0.953
UGGGCUGUCACAUCACACU,MATK,-1.278
AUGGUAUUGAAAUCUAUCC,GLIS3,1.965
UAUGUGCUGAGCUUCCACU,PYCRL,0.01749
AGAGAUGUGCGGGAAGUCC,TOX2,0.1375
UUCGUAAUGUGAUCGUAGC,KDM5D,-0.006207
AUUGUGAUGAUGUCGUUCU,SGSM3,-0.4459
UUCCUUGGGACAUUGGAUG,CCL8,-1
AUUUCUACCAAUAUCAUUG,PKIB,-0.1361
UACUUGAUACCCUCGGAGC,AP1M2,-0.06356
AUCUGAACCUCUGAUUUGC,SQLE,-0.3885
UAUGGAAGGACCUUGCUCG,IGFBP7,0.6538
UUAGGUUUAAUGAAGAGCU,SMIM8,0.01551
UAUCAAAUAGGGAGAAGGC,CALM1,0.1164
AGACUAUGCAGUAAAAUGC,TMEM128,-0.8918
AAAUCUUGCAACCUGGUUC,RUNX1,0.6483
UUGUUGUACAUAUAAAACG,VSTM2A,0.1895
UUGAGAAUUUGGGUCACUC,BOLA3,-0.9367
UUUGCACUGACUAAUCUCC,NEMF,0.7168
UGUUGGUAGACCUCGUUGG,ARHGEF16,0.9333
UUUCUGAACCAGGACAUUA,SFXN5,-0.2048
AGAAGAAUACCAGAGAUCC,OR9G1,1.989
UAAGAGUGGUGCUUGAUCC,SORBS2,1.666
UUUGAUGAUAACUGGAUUC,ST3GAL5,-1.855
AAAGCGAUGACCAUGAUGA,RHO,0.2201
UGAAAUAUCCUUUACAUGG,TIMM50,1.532
AUCUUGUCAGUUAUGAGCC,SLC22A14,-0.1209
UUCAAUCCCAUUGUGGUUC,CDC20B,0.3546

Repeated from the top, 4 entries:

siRNA,gene,seed-corrected z-score
UUCGAUGAGACUCAAAUUC,AP4M1,-0.6802
UUCGGAUGCUUCUUCUUCC,RNF103,0.004825
UUGAUGAUCCCGAUGGUCC,P2RX3,0.04975
AACGGUGUAAUGUUGUAGG,TBC1D30,-0.7932